Experimental data published in the supplement of paper PMC8728848.
Some of the results follow.

Tests used:
Assay in all cases: glycan array binding signal (z-score within array); higher = stronger binding
Conditions in all cases: glycan notation: IUPAC condensed, linker removed
[1] = molecular target: Fuc(a1-2)[GalNAc(a1-3)]Gal(b1-3)GlcNAc(b1-6)GalNAc
Method in brief: (§1)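 Arrays were curated from the Consortium for Functional Glycomics database, 3228 in total, and kept only where the protein sequence was available. Binding is expressed as a within-array Z-score. This score was averaged across arrays of the same protein sequence at different concentrations or buffers and across linkers, and negative values can be read as non-binding.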

[2] = molecular target: Fuc(a1-2)[GalNAc(a1-3)]Gal(b1-4)Glc
Method in brief: as §1

[3] = molecular target: Fuc(a1-2)[GalNAc(a1-3)]Gal(b1-4)GlcNAc
Method in brief: as §1

[4] = molecular target: Fuc(a1-2)[GalNAc(a1-3)]Gal(b1-4)GlcNAc(b1-2)Man
Method in brief: as §1

[5] = molecular target: Fuc(a1-2)[GalNAc(a1-3)]Gal(b1-4)GlcNAc(b1-2)Man(a1-3)[Fuc(a1-2)[GalNAc(a1-3)]Gal(b1-4)GlcNAc(b1-2)Man(a1-6)]Man(b1-4)GlcNAc(b1-4)GlcNAc
Method in brief: as §1

[6] = molecular target: Fuc(a1-2)[GalNAc(a1-3)]Gal(b1-4)GlcNAc(b1-2)Man(a1-3)[Fuc(a1-2)[GalNAc(a1-3)]Gal(b1-4)GlcNAc(b1-2)Man(a1-6)]Man(b1-4)GlcNAc(b1-4)[Fuc(a1-6)]GlcNAc
Method in brief: as §1

[7] = molecular target: Fuc(a1-2)[GalNAc(a1-3)]Gal(b1-4)GlcNAc(b1-3)Gal(b1-4)GlcNAc
Method in brief: as §1

[8] = molecular target: Fuc(a1-2)[GalNAc(a1-3)]Gal(b1-4)GlcNAc(b1-3)Gal(b1-4)GlcNAc(b1-3)Gal(b1-4)GlcNAc
Method in brief: as §1

[9] = molecular target: Fuc(a1-2)[GalNAc(a1-3)]Gal(b1-4)GlcNAc(b1-3)GalNAc
Method in brief: as §1

[10] = molecular target: Fuc(a1-2)[GalNAc(a1-3)]Gal(b1-4)GlcNAc(b1-3)[Fuc(a1-2)[GalNAc(a1-3)]Gal(b1-4)GlcNAc(b1-6)]GalNAc
Method in brief: as §1

[11] = molecular target: Fuc(a1-2)[GalNAc(a1-3)]Gal(b1-4)GlcNAc(b1-6)GalNAc
Method in brief: as §1

[12] = molecular target: Fuc(a1-2)[GalNAc(a1-3)]Gal(b1-4)[Fuc(a1-3)]GlcNAc
Method in brief: as §1

[13] = molecular target: Fuc(a1-2)[GalNAc(a1-3)]Gal(b1-4)[Fuc(a1-3)]GlcNAc(b1-3)GalNAc
Method in brief: as §1

[14] = molecular target: Fuc(a1-2)[GalNAc(a1-4)]Gal(b1-4)GlcNAc
Method in brief: as §1

[15] = molecular target: Fuc(a1-2)[GalNAc(b1-3)]Gal
Method in brief: as §1

Fuc(a1-3)GlcNAc = molecular target: Fuc(a1-3)GlcNAc
Method in brief: as §1

[16] = molecular target: Fuc(a1-3)[Gal(b1-4)]Glc6S
Method in brief: as §1

[17] = molecular target: Fuc(a1-3)[Gal(b1-4)]GlcNAc
Method in brief: as §1

[18] = molecular target: Fuc(a1-3)[Gal(b1-4)]GlcNAc(b1-2)Man
Method in brief: as §1

[19] = molecular target: Fuc(a1-3)[Gal(b1-4)]GlcNAc(b1-2)Man(a1-3)[Fuc(a1-3)[Gal(b1-4)]GlcNAc(b1-2)Man(a1-6)]Man(b1-4)GlcNAc(b1-4)GlcNAc
Method in brief: as §1

[20] = molecular target: Fuc(a1-3)[Gal(b1-4)]GlcNAc(b1-2)Man(a1-3)[Fuc(a1-3)[Gal(b1-4)]GlcNAc(b1-2)Man(a1-6)]Man(b1-4)GlcNAc(b1-4)[Fuc(a1-6)]GlcNAc
Method in brief: as §1

[21] = molecular target: Fuc(a1-3)[Gal(b1-4)]GlcNAc(b1-3)Gal(b1-3)[Fuc(a1-4)]GlcNAc
Method in brief: as §1

[22] = molecular target: Fuc(a1-3)[Gal(b1-4)]GlcNAc(b1-3)Gal(b1-4)[Fuc(a1-3)]GlcNAc
Method in brief: as §1

[23] = molecular target: Fuc(a1-3)[Gal(b1-4)]GlcNAc(b1-3)Gal(b1-4)[Fuc(a1-3)]GlcNAc(b1-3)Gal(b1-4)[Fuc(a1-3)]GlcNAc
Method in brief: as §1

[24] = molecular target: Fuc(a1-3)[Gal(b1-4)]GlcNAc(b1-3)GalNAc
Method in brief: as §1

[25] = molecular target: Fuc(a1-3)[Gal(b1-4)]GlcNAc(b1-6)GalNAc
Method in brief: as §1

[26] = molecular target: Fuc(a1-3)[Gal(b1-4)]GlcNAc(b1-6)[Gal(b1-3)GlcNAc(b1-3)]Gal(b1-4)Glc
Method in brief: as §1

[27] = molecular target: Fuc(a1-3)[Gal(b1-4)]GlcNAc6S
Method in brief: as §1

[28] = molecular target: Fuc(a1-3)[Gal3S(b1-4)]Glc
Method in brief: as §1

[29] = molecular target: Fuc(a1-3)[Gal3S(b1-4)]GlcNAc
Method in brief: as §1

[30] = molecular target: Fuc(a1-3)[Gal3S(b1-4)]GlcNAc6S
Method in brief: as §1

[31] = molecular target: Fuc(a1-3)[GalNAc(b1-4)]GlcNAc
Method in brief: as §1

[32] = molecular target: Fuc(a1-3)[GalNAc(b1-4)]GlcNAc6S
Method in brief: as §1

Fuc(a1-4)GlcNAc = molecular target: Fuc(a1-4)GlcNAc
Method in brief: as §1

Fuc(b1-3)GlcNAc = molecular target: Fuc(b1-3)GlcNAc
Method in brief: as §1

Gal(a1-2)Gal = molecular target: Gal(a1-2)Gal
Method in brief: as §1

Gal(a1-3)Gal = molecular target: Gal(a1-3)Gal
Method in brief: as §1

B1: Langerin K299A/K313A (Homo sapiens), Q9UJ71 (protein)
chain: STLNAQIPELKSDLEKASALNTKIRALQGSLENMSKLLKRQNDILQVVSQGWKYFKGNFYYFSLIPKTWYSAEQFCVSRNSHLTSVTSESEQEFLYKTAGGLIYWIGLTKAGMEGDWSWVDDTPFNKVQSARFWIPGEPNNAGNNEHCGNIAAPSLQAWNDAPCDATFLFICKRPYVPSEP
For B1, the “glycan array binding signal (z-score)” value [1] was 2.49, the “glycan array binding signal (z-score)” value [2] was -1.41 and the “glycan array binding signal (z-score)” value [3] was -0.86. For the same binder, the “glycan array binding signal (z-score)” value [4] was -0.409, the “glycan array binding signal (z-score)” value [5] was -0.652 and the “glycan array binding signal (z-score)” value [6] was 1.5. The “glycan array binding signal (z-score)” value [7] was 0.057, the “glycan array binding signal (z-score)” value [8] was 0.722 and the “glycan array binding signal (z-score)” value [9] was -0.452. The “glycan array binding signal (z-score)” value [10] was -0.161, the “glycan array binding signal (z-score)” value [11] was -0.086 and the “glycan array binding signal (z-score)” value [12] was 1.42. For the same binder, the “glycan array binding signal (z-score)” value [13] was 1.92, the “glycan array binding signal (z-score)” value [14] was -0.441 and the “glycan array binding signal (z-score)” value [15] was 0.699. For the same binder, the “glycan array binding signal (z-score)” value (Fuc(a1-3)GlcNAc) was 0.179, the “glycan array binding signal (z-score)” value [16] was 3.28 and the “glycan array binding signal (z-score)” value [17] was 0.053. For the same binder, the “glycan array binding signal (z-score)” value [18] was -0.163, the “glycan array binding signal (z-score)” value [19] was 0.222 and the “glycan array binding signal (z-score)” value [20] was 1.2. The “glycan array binding signal (z-score)” value [21] was 0.313, the “glycan array binding signal (z-score)” value [22] was 0.842 and the “glycan array binding signal (z-score)” value [23] was -0.771. For the same binder, the “glycan array binding signal (z-score)” value [24] was -0.202, the “glycan array binding signal (z-score)” value [25] was 1.03 and the “glycan array binding signal (z-score)” value [26] was -0.799. For the same binder, the “glycan array binding signal (z-score)” value [27] was 0.335, the “glycan array binding signal (z-score)” value [28] was 1.5 and the “glycan array binding signal (z-score)” value [29] was 0.013. For the same binder, the “glycan array binding signal (z-score)” value [30] was 1.77, the “glycan array binding signal (z-score)” value [31] was -0.249 and the “glycan array binding signal (z-score)” value [32] was 0.023. For the same binder, the “glycan array binding signal (z-score)” value (Fuc(a1-4)GlcNAc) was -0.653, the “glycan array binding signal (z-score)” value (Fuc(b1-3)GlcNAc) was -0.751 and the “glycan array binding signal (z-score)” value (Gal(a1-2)Gal) was -0.423. For the same binder, the “glycan array binding signal (z-score)” value (Gal(a1-3)Gal) was -0.327.
